For 19 molecules, survivor count and T/C results are on record in PubChem BioAssay AID328 (DTP/NCI, 2004).

This test relates to BDF1 mice, P388 leukemia ip, median survival T/C. In words: NCI In Vivo Anticancer Drug Screen. Data for tumor model P388 Leukemia (intraperitoneal) in B6D2F1 (BDF1) mice. Conditions: T/C endpoint: median survival time, higher T/C = longer survival. The method in brief: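 Steps: implant the tumour, treat one group with compound and another with vehicle, record survival, then divide treated by control.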

The mark [1] stands for this setting: dose: 200.0 mg/kg/injection, schedule: Q04DX003 (ip), vehicle: saline with Tween-80.
Setting [2] is: dose: 400.0 mg/kg/injection, schedule: Q04DX003 (ip), vehicle: saline with Tween-80.
The mark [3] stands for this setting: dose: 200.0 mg/kg/injection, schedule: Q01DX009 (ip), vehicle: saline with Tween-80.
Setting [4] is: dose: 100.0 mg/kg/injection, schedule: Q01DX009 (ip), vehicle: saline with Tween-80.
[5] abbreviates: dose: 400.0 mg/kg/injection, schedule: Q01DX009 (ip), vehicle: saline.
[6] abbreviates: dose: 50.0 mg/kg/injection, schedule: Q01DX009 (ip), vehicle: saline.
Setting [7] is: dose: 100.0 mg/kg/injection, schedule: Q01DX009 (ip), vehicle: saline.
The mark [8] stands for this setting: dose: 200.0 mg/kg/injection, schedule: Q01DX009 (ip), vehicle: saline.

Molecules are shown by their SMILES. The list does not hold the whole screen: it gathers tests that were run many times, whatever their T/C, doses with no T/C, and many T/C values between a quarter and a half above the control. Further doses and runs are listed elsewhere. T/C is the treated group as % of the vehicle group. Some doses have a count of surviving animals in place of a T/C: the source holds a T/C of zero for them, seemingly a mark for toxic or unscored doses. Some doses without a T/C left all or most animals alive at the check, yet need not have been tolerated: survival well below the control is almost never listed, so the zero probably covers shortened survival too. Counts of survivors are from the toxicity check (mostly the fifth day) where no day follows; animals may have died later. Schedules are NCI's codes, read here as Q, the interval in days (D) or hours (H), X, the number of doses. Where survival is the endpoint, this PubChem deposit counts one and a half times the control or more as active, and values a quarter to a half above the control carry no call in these data; other NCI protocols may use other cut-offs. Some T/C values carry the count of animals alive at the toxicity check (mostly the fifth day); without a count, all were alive then. Some entries were tested several times; their values stand side by side, smallest first. Residues, ends and D or L forms follow the SMILES beside them. *: point of attachment. Bn = c1ccc(C*)cc1

As for `CC(C)CCCC(C)C1CCC2C3CC=C4CC(O)CCC4(C)C3CCC12C` (configuration not stated) (tested in a mixture with another compound), the survivor count (dose: 335.0 mg/kg/injection, schedule: Q04DX003 (ip), vehicle: Klucel (hydroxypropylcellulose) (HPC)) is 0 of 6.
In the case of `CC1=Nc2ccccc2/C1=C\c1c(C)[nH]c2ccccc12`, the T/C runs as follows: (dose: 50.0 mg/kg/injection, schedule: Q01DX009 (ip), vehicle: Klucel (hydroxypropylcellulose) (HPC)) 91, 104, 113, 123 [5 of 6 alive], 166 % of control [5 of 6 alive]; (dose: 100.0 mg/kg/injection, schedule: Q01DX009 (ip), vehicle: Klucel (hydroxypropylcellulose) (HPC)) 140 and 145 % of control; (dose: 200.0 mg/kg/injection, schedule: Q01DX009 (ip), vehicle: Klucel (hydroxypropylcellulose) (HPC)) 129 % of control.
As to `CC1OC(OCc2cc(O)c3c(c2)C(C2OC(CO)C(O)C(O)C2O)c2cccc(O)c2C3=O)C(O)C(O)C1O` (configuration not stated), the survivor count is 6 of 6 under setting [1] and 5 of 6 under setting [2].
In the case of `CCCn1c2nc(=O)n(C)c(=O)c-2[n+]([O-])c2ccccc21`, the survivor count (dose: 25.0 mg/kg/injection, schedule: Q01DX001 (ip), vehicle: saline with Tween-80) is 0 of 6.
On to `CCCCCOC(=O)c1ccc(OP(=O)(N(C)C)N(C)C)cc1`, for which the survivor count under setting [3] is 3 of 6.
In the case of `CCOC(=O)C1CNc2ccccc2N1` (configuration not stated), the survivor count is, setting by setting: (dose: 28.75 mg/kg/injection, schedule: Q04DX003 (ip), vehicle: Klucel (hydroxypropylcellulose) (HPC)) 6 of 6; (dose: 170.0 mg/kg/injection, schedule: Q01DX009 (ip), vehicle: Klucel (hydroxypropylcellulose) (HPC)) 3 of 6; (dose: 170.0 mg/kg/injection, schedule: Q04DX003 (ip), vehicle: Klucel (hydroxypropylcellulose) (HPC)) 2 of 6; (dose: 260.0 mg/kg/injection, schedule: Q01DX001 (ip), vehicle: Klucel (hydroxypropylcellulose) (HPC)) 0 of 6; (dose: 260.0 mg/kg/injection, schedule: Q04DX003 (ip), vehicle: Klucel (hydroxypropylcellulose) (HPC)) 1 of 6; (dose: 390.0 mg/kg/injection, schedule: Q01DX001 (ip), vehicle: Klucel (hydroxypropylcellulose) (HPC)) 0 of 6. Also, for the setting “dose: 390.0 mg/kg/injection, schedule: Q04DX003 (ip), vehicle: Klucel (hydroxypropylcellulose) (HPC)”, the survivor count is 0 of 6.
For `O=N[O-].O=N[O-].O=N[O-].[Co+3].[NH-]CC[N-]CC[NH-]`, the survivor count is, setting by setting: under setting [4], 0 of 6; under setting [3], 0 of 6.
Consider `COC(=O)C(CC(C)C)NC(=O)C(N)Cc1ccc(OCc2ccccc2)cc1` (configuration not stated) (H-Tyr(Bn)-Leu-OMe; configuration not given here), for which the survivor count is, setting by setting: under setting [4], 1 of 6; under setting [3], 0 of 6; under setting [1], 2 of 6.
Regarding `Cc1c(N)nc(Br)c2ccccc12`, the survivor count (dose: 400.0 mg/kg/injection, schedule: Q04DX003 (ip), vehicle: saline sonified) was 6 of 6.
For the molecule `COc1ccc(CC(=O)Cc2ccc(OC)c(OC)c2)cc1OC`, for the setting “dose: 400.0 mg/kg/injection, schedule: Q01DX009 (ip), vehicle: saline with Tween-80”, the T/C is 134 % of control.
Turning to `CCOP(=O)(OCC)OCCCN(CC)CC`, the survivor count under setting [5] was 0 of 6.
Take `CC([OH2+])CNCCN.CC([OH2+])CNCCN.O=[N+]([O-])[O-].[Ni+2]` (configuration not stated): the survivor count runs as follows: under setting [6], 6 of 6; under setting [7], 1 of 6; under setting [8], 0 of 6.
For `O=NN(CCCl)C(=O)NC1CSCSC1`, the T/C (dose: 1.1 mg/kg/injection, schedule: Q01DX009 (ip), vehicle: saline with Tween-80) is 126 % of control; the T/C (dose: 1.7 mg/kg/injection, schedule: Q01DX009 (ip), vehicle: saline with Tween-80) is 146 % of control; the T/C (dose: 18.0 mg/kg/injection, schedule: Q04DX003 (ip), vehicle: saline with Tween-80) was 136 % of control. Further, the survivor count is on record as 6 of 6 (dose: 25.0 mg/kg/injection, schedule: Q01DX009 (ip), vehicle: saline with Tween-80); 5 of 6 (dose: 50.0 mg/kg/injection, schedule: Q01DX009 (ip), vehicle: saline with Tween-80); 4 of 6 under setting [4].
For `O=c1[nH]cc(F)c(=O)n1C1OC(CO)C(O)C1O` (configuration not stated), the survivor count (dose: 6.0 mg/kg/injection, schedule: Q01DX009 (ip), vehicle: saline) is listed as 6 of 6.
With `CC(C)c1ccc(C(=O)C2CC2)cc1`, the survivor count (dose: 100.0 mg/kg/injection, schedule: Q04DX003 (ip), vehicle: Klucel (hydroxypropylcellulose) (HPC)) is reported as 6 of 6 and the survivor count (dose: 400.0 mg/kg/injection, schedule: Q04DX003 (ip), vehicle: Klucel (hydroxypropylcellulose) (HPC)) was 5 of 6.
Regarding `c1ccc(C(Nc2nccs2)Nc2nccs2)cc1`, the survivor count is, setting by setting: under setting [4], 3 of 6; under setting [3], 0 of 6.
On to `CCOC(=O)C(CCSC(C)=O)SC(C)=O` (configuration not stated), for which the survivor count was 1 of 6 under setting [4]; 4 of 6 (dose: 100.0 mg/kg/injection, schedule: Q04DX003 (ip), vehicle: saline with Tween-80); 0 of 6 under setting [1]; 0 of 6 under setting [2].
Regarding `CN(CCO)/N=N/c1nc[nH]c1C(N)=O`, the survivor count was 5 of 6 (dose: 12.5 mg/kg/injection, schedule: Q01DX009 (ip), vehicle: saline); 5 of 6 under setting [6]; 6 of 6 under setting [7].
As to `Oc1ccc(N=Cc2ccccc2O)cc1`, the T/C was 125 % of control under setting [8]; 131 % of control (dose: 264.0 mg/kg/injection, schedule: Q01DX009 (ip), vehicle: saline); 131 and 133 % of control under setting [5].
